## Primary screen of a compound library

Amino acid sequences for entries named in this document (tags omitted). Residues count along the entry.
UniProt P9WPC5, whole entry: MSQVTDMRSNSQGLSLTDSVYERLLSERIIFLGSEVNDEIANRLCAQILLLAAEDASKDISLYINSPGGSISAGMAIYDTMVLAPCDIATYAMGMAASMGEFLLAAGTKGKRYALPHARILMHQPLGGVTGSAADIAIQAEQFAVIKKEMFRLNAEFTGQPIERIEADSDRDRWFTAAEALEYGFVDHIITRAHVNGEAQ
UniProt P9WPC3, whole entry partner: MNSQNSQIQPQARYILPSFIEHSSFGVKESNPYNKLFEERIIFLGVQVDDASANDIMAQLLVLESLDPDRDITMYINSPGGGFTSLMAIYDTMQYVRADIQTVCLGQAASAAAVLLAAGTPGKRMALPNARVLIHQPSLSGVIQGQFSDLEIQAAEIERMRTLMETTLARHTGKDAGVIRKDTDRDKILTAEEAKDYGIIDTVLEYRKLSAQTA
UniProt Q4DA54, 1-478: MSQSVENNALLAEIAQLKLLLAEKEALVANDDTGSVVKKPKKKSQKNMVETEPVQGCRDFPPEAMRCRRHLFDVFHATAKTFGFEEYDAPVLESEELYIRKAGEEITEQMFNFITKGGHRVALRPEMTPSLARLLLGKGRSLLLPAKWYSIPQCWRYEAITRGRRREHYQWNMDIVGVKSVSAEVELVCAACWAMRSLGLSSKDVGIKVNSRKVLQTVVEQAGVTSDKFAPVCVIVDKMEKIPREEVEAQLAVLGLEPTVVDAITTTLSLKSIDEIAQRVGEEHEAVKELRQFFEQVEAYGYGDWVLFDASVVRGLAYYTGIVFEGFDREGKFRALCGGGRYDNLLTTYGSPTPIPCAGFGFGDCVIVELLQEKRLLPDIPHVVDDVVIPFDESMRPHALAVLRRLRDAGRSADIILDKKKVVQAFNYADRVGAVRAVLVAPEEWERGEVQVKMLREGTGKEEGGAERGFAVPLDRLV
UniProt Q8IDJ8, 1-583: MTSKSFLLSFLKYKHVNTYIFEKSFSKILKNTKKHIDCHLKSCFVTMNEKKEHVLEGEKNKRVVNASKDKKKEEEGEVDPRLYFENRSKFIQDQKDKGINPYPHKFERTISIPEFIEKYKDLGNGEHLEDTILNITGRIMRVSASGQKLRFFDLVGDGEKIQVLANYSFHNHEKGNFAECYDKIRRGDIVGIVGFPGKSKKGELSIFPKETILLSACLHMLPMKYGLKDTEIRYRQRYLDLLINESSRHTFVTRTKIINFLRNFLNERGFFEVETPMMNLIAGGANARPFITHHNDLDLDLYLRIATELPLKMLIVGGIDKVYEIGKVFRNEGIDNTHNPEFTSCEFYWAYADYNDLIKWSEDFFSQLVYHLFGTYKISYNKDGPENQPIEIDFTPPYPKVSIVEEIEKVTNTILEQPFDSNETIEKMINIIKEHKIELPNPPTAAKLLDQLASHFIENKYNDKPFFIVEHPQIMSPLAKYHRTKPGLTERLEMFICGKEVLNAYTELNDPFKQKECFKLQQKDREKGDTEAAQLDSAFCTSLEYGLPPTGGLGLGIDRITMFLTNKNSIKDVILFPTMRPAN
UniProt I6X8D2, whole entry: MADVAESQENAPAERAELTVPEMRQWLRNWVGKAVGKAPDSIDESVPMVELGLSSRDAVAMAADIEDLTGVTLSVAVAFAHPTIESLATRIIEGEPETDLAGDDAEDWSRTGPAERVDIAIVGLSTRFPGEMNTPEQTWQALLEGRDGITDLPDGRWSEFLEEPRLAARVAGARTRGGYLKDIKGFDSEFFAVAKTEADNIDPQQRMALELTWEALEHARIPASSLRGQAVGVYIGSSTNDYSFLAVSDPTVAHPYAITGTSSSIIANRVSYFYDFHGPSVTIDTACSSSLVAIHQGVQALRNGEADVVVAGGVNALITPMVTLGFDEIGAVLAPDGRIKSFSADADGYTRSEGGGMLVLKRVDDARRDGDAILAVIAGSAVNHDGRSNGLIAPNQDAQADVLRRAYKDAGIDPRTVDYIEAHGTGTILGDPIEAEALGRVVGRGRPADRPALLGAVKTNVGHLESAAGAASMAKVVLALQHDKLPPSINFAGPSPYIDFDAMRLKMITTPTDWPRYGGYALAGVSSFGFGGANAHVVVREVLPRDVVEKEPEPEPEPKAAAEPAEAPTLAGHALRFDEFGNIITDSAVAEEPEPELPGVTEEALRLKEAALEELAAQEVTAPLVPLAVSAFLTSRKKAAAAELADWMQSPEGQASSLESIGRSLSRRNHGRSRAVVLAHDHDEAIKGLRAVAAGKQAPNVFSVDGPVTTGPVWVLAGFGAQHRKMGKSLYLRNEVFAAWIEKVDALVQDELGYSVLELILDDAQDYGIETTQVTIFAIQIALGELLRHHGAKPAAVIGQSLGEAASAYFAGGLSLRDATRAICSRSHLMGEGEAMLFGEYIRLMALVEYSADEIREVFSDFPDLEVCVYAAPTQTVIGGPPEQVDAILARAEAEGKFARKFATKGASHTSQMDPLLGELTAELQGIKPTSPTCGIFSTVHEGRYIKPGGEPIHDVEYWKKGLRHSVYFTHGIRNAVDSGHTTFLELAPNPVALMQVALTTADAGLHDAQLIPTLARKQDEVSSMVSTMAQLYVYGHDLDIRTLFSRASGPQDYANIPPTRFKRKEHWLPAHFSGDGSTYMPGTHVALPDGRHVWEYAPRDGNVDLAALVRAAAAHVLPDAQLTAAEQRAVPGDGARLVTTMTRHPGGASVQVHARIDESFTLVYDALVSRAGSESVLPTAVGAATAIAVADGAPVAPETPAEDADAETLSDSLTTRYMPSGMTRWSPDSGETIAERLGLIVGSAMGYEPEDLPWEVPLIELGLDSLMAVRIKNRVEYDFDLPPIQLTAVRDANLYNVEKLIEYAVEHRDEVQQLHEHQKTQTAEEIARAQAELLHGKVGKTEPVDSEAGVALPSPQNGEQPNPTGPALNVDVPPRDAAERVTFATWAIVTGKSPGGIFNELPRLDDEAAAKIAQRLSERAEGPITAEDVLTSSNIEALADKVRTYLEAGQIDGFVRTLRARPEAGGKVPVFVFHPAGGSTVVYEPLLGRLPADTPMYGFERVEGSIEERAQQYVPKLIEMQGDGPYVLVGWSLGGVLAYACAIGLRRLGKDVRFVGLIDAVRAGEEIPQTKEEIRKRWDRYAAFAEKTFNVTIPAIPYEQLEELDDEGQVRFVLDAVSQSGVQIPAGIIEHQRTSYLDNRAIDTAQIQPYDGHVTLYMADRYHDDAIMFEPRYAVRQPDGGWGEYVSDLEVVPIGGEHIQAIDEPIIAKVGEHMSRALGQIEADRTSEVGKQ

ClpP1P2: 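ClpP1P2, Mycobacterium tuberculosis (UniProt P9WPC5 and UniProt P9WPC3). Protease assay of ClpP1P2, read by the AMC dye that it sets free. Tested at 50 µM. Higher reads as stronger inhibition, judged from the few compounds that gave an IC50. Most other retested compounds had strongly negative values. Of about 69,000 compounds tested this way, about 10 (0.015%) reached 50% or more in at least one test.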
TcHisRS: 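Enzyme assay of histidyl-tRNA synthetase; the read-out is not stated. Target: Histidine-tRNA ligase, Trypanosoma cruzi CL Brener (UniProt Q4DA54). Tested at 30 µM. Direction is inferred from retests: higher values go with stronger inhibition. Of about 69,000 compounds tested this way, about 31 (0.045%) reached 50% or more in at least one test.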
PfKRS1: 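Enzyme assay of the cytosolic lysyl-tRNA synthetase in 384-well plates, read by luminescence. Target: Lysine-tRNA ligase, Plasmodium falciparum 3D7 (UniProt Q8IDJ8). Concentration: 30 µM. Higher reads as stronger inhibition, judged from the few compounds that gave an IC50. About 69,000 compounds were tested under these conditions; 0.071% (about 49) showed 50% or more at least once.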
Pks13 thioesterase: 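Enzyme assay of the thioesterase domain of polyketide synthase 13; the read-out is not stated. Target: Polyketide synthase Pks13, Mycobacterium tuberculosis (UniProt I6X8D2). Tested at 30 µM. The record gives no direction; the compounds picked for IC50 retests had high values, so higher reads as stronger inhibition. Size under these conditions: about 67,000 compounds, about 300 of them at 50% or above in at least one test.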

Results are given as percent effect. The record does not define 0% and 100%; most values in the screen are far below 50% and negative numbers occur (in some assays of this library far below -100). Compounds were drawn at random from those tested, without regard to their results. A dash means the value is not listed here; it may have been measured.

| # | compound | ClpP1P2 | TcHisRS | PfKRS1 | Pks13 thioesterase |
|---|---|---|---|---|---|
| 1 | `COCCN1CCO[C@@H]2CN(Cc3sccc3C)C[C@@H]2C1` | -10.7% | 4.902% | 3.196% | 2.886% |
| 2 | `Cn1ccc(CN2CCC(OCCc3ccccc3)CC2)cc1=O` | -8.186% | 6.107% | 1.519% | -2.287% |
| 3 | `Cc1nc(-c2ccoc2)n(CC(=O)NCC(C)C)c1C` | -20.47% | 7.955% | 1.81% | 15.82% |
| 4 | `Cc1cccnc1CC(C)NC1Cc2ccccc2C1` (configuration not stated) | 10.03% | 10.99% | -1.23% | 15.77% |
| 5 | `CCN(CC1CCOC1)S(=O)(=O)Cc1cc(Cl)ccc1OC` (configuration not stated) | -7.681% | 6.952% | 0.1696% | -7.206% |
| 6 | `Cc1nnc(C(C)NCC2(c3c(F)cccc3F)CCCC2)o1` (configuration not stated) | -15.43% | 2.5% | 1.411% | -4.47% |
| 7 | `CCO[C@H]1CC[C@H]2[C@H]1OCCN2C(=O)COc1ccccc1` | 12.05% | 8.466% | 3.76% | -23.41% |
| 8 | `CN(CC1CCOCC1)C1CCCN(c2ccccn2)C1` (configuration not stated) | -7.329% | 6.818% | -0.08537% | 0.2883% |
| 9 | `CN(C)C(=O)[C@H]1C[C@H]2OCC[C@H]2N(Cc2ccccn2)C1` | -5.27% | 0% | -0.8592% | -11.91% |
| 10 | `O=C(c1ccncc1)N1CCCC1c1cccc(Br)c1` (configuration not stated) | 1.778% | -6.077% | 2.141% | -5.24% |
| 11 | `O=C(O)c1cc(-c2ccccc2)ns1` | 13.6% | 7.216% | 3.989% | -9.845% |
| 12 | `O=C(NCCOc1ccccc1)C1NCCc2[nH]cnc21` (configuration not stated) | 0.07224% | 3.261% | 4.239% | -7.663% |
| 13 | `CCC(NC(=O)NCc1ccoc1C)c1c(C)nn(C)c1C` (configuration not stated) | -5.469% | 12.07% | 4.589% | -28.79% |
| 14 | `Fc1ccc(C2(NCc3noc(C4CC4)n3)CCC2)cc1` | -8.499% | 6.316% | -5.5% | -28.83% |
| 15 | `Cc1c[nH]c(C2CCCN(Cc3cccc(C(=O)O)c3)C2)n1` (configuration not stated) | -11.36% | 8.812% | -1.128% | 9.462% |
| 16 | `CN(C)C(=O)Cn1c2c(ccc1=O)CC(NCc1ccoc1)CC2` (configuration not stated) | 0.07941% | 0% | 13.75% | -22.17% |
| 17 | `CS(=O)(=O)c1cccc(C(N)c2ccc(F)c(F)c2)c1` (configuration not stated) | -2.252% | -10.94% | 5.108% | -12.13% |
| 18 | `Cc1cccc(C)c1NC(=O)c1cccc(N(C)S(C)(=O)=O)c1C` | -6.043% | 2.02% | 1.478% | -6.937% |
| 19 | `COCCN1CCCN(C(=O)NC(C)Cn2ccnc2)CC1` (configuration not stated) | -4.159% | 1.901% | 3.997% | -51.93% |
| 20 | `COc1ccc(N2Cc3nc(=O)n(Cc4cccc(F)c4)n3C2=O)cc1` | 6.076% | -4.95% | 1.103% | -10.21% |
| 21 | `CCc1cnc(N2CCOC(CCOC)C2)nc1` (configuration not stated) | 9.731% | 3.947% | -0.6212% | -26.1% |
| 22 | `Cc1ccc(CN2CCOCC2)cc1NCc1ccsc1` | 3.251% | 10.84% | 3.151% | -6.498% |
| 23 | `Cc1nc(-c2ccccc2)cc2nn(CC(N)=O)c(=O)n12` | -24.08% | 7% | 4.52% | -4.218% |
| 24 | `Cc1noc(C)c1CNC(C)c1ccc(S(=O)(=O)N(C)C)cc1` (configuration not stated) | -5.862% | 3.448% | 8.272% | -24.56% |
| 25 | `COC(=O)c1cc2n(n1)CCCN(C(=O)Cc1c[nH]c3ccccc13)C2` | -22.77% | 0.9662% | 0.2425% | 5.9% |
| 26 | `CC(C)C(=O)NC1CCCN(C(=O)c2cc3ccccc3cc2O)C1` (configuration not stated) | -0.404% | 3.725% | -1.681% | -0.08769% |
| 27 | `Cc1csc(NC(=O)C(C)Oc2ccc3c(c2)OCO3)n1` (configuration not stated) | -0.6026% | 5.263% | -0.5777% | -0.2435% |
| 28 | `Cc1noc(C(C)N2CCN(Cc3nc(C)c(C)o3)CC2)n1` (configuration not stated) | -39.62% | 5.294% | 2.428% | -4.402% |
| 29 | `COc1cccc(CN2CCN(Cc3ccc4nonc4c3)CC2=O)c1` | -15.77% | 2.513% | -1.213% | 10.51% |
| 30 | `N#Cc1ccc(N2CCC3(CC2)CC(Oc2cccnc2)CO3)cc1` (configuration not stated) | 11.9% | 15.05% | 4.629% | 10.57% |
| 31 | `Cc1nc[nH]c1-c1nc2cc(S(=O)(=O)N3CCCC3)ccc2n1C` | -4.967% | 0.8264% | 4.648% | -12.89% |
| 32 | `c1cc(OCc2ccc3c(c2)OCO3)ccc1CNC1CC1` | 27.5% | -2.174% | -22.83% | -12.81% |
| 33 | `CCN1CC2(CCC1=O)CCN(c1ccc(C(C)=O)cn1)CC2` | 4.644% | 4.433% | 2.503% | -12.48% |
| 34 | `NC(=O)CN1C[C@@H](c2ccccc2F)[C@@]2(CCCCC(=O)N2)C1` | -6.968% | -2.26% | 2.423% | -4.406% |
| 35 | `Cc1ccc(CC(=O)N2C[C@@H](CN(C)C)[C@@H](CO)C2)cc1C` | -13.8% | 3.03% | -0.2166% | -5.76% |
| 36 | `CC[C@H]1CN(S(C)(=O)=O)CC[C@H]1CC(=O)NCCSC` | -10.8% | 16.83% | 4.293% | -3.956% |
| 37 | `CCCc1cc(C(=O)NCCN2C(=O)c3ccccc3C2=O)[nH]n1` | -1.946% | 8.442% | 8.118% | - |
| 38 | `Cc1ccc(F)c(CNc2ccn(CCC(N)=O)n2)c1` | -0.2343% | -1.235% | 0.4388% | 0.6394% |
| 39 | `Cc1c(C(=O)NC2CC(C)(C)NC(C)(C)C2)cnn1-c1ccc(F)cc1` | -8.556% | 1.685% | 2.992% | -33.9% |
| 40 | `Cc1cnn(CC2CN(CC(=O)N3CCc4ccccc43)CCO2)c1` (configuration not stated) | -3.612% | -1.887% | -0.2273% | -13.59% |
| 41 | `O=C(Cc1csc(-c2ccoc2)n1)NCCC(=O)N1CCCCC1` | -4.166% | 9.574% | 4.562% | -19.92% |
| 42 | `Cc1cc(Nc2nc(C)cc(C)n2)cc(C2CCCN2)n1` (configuration not stated) | -14.49% | -0.2857% | 0.6417% | 44.84% |
| 43 | `COCCCN(CCOC)Cc1nc2c(cnn2C)c(=O)[nH]1` | 8.943% | 5.444% | 0.5372% | -10.84% |
| 44 | `CN(Cc1nc(CC2CC2)no1)CC1Cc2ccccc2O1` (configuration not stated) | -2.943% | 4.372% | 4.927% | -5.302% |
| 45 | `CCOc1ccc(C(=O)CCC(=O)N(C)Cc2snnc2C)cc1C` | -7.24% | 3.867% | 0.5011% | -32.4% |
| 46 | `CC(SCC(=O)N(C)CC(=O)NC1CC1)c1cc(F)ccc1F` (configuration not stated) | -3.529% | 7.328% | 0.7246% | -21.29% |
| 47 | `COc1nc(C)ccc1CNC(=O)NC(c1ncc(C)s1)C1CC1` (configuration not stated) | -2.6% | 10.5% | 5.121% | -42.46% |
| 48 | `CC(C)c1n[nH]c(C2CN(C(=O)c3ncoc3C(C)C)CCO2)n1` (configuration not stated) | -6.196% | 1.734% | 0.7408% | -8.934% |
| 49 | `CCOC(=O)c1cn(CC(O)c2ccccc2OC)nn1` (configuration not stated) | -14.38% | 3.415% | 1.42% | -31.28% |
| 50 | `Cc1ccc(-n2cc(C(=O)NCc3nnc4n3CCCCC4)nn2)cc1` | -1.765% | 4.464% | 9.37% | -6.419% |
| 51 | `Cc1ccc(CNCC2Cn3nncc3CO2)s1` (configuration not stated) | -0.4531% | 5.525% | 5.196% | -12.49% |
| 52 | `Cc1cnn(CC2CCCCN2CC(=O)Nc2nc(C)cs2)c1` (configuration not stated) | 5.629% | -0.5634% | 2.63% | -6.041% |
| 53 | `CCOC1CCN(C(=O)NCCc2ccn(-c3ccccc3)n2)CC1` | -51.39% | 5.539% | 2.086% | -21.95% |

For reference, 6 entries once more:

| compound | ClpP1P2 | TcHisRS | PfKRS1 | Pks13 thioesterase |
|---|---|---|---|---|
| `CCO[C@H]1CC[C@H]2[C@H]1OCCN2C(=O)COc1ccccc1` | 12.05% | 8.466% | 3.76% | -23.41% |
| `CCOC(=O)c1cn(CC(O)c2ccccc2OC)nn1` (configuration not stated) | -14.38% | 3.415% | 1.42% | -31.28% |
| `Fc1ccc(C2(NCc3noc(C4CC4)n3)CCC2)cc1` | -8.499% | 6.316% | -5.5% | -28.83% |
| `CS(=O)(=O)c1cccc(C(N)c2ccc(F)c(F)c2)c1` (configuration not stated) | -2.252% | -10.94% | 5.108% | -12.13% |
| `N#Cc1ccc(N2CCC3(CC2)CC(Oc2cccnc2)CO3)cc1` (configuration not stated) | 11.9% | 15.05% | 4.629% | 10.57% |
| `Cc1noc(C(C)N2CCN(Cc3nc(C)c(C)o3)CC2)n1` (configuration not stated) | -39.62% | 5.294% | 2.428% | -4.402% |

Measurements from “University of Dundee, Small-Polar-MMV Screening Library” (2021), ChEMBL document CHEMBL3988442.